# According to the supplement of paper PMC10735217:
# Where a name gives a salt, the structure may show the parent alone. The list shows a part of the results. This data set is noisy: repeats of one test often differ as much as different tests do.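 The human kidney-derived cells carry a stably integrated construct of eight TEAD-binding elements driving luciferase, read by luminescence in a drug-repurposing library screen. A compound counts as a hit when its signal is more than five robust Z scores above the plate mean.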
# Tested on: HEK293A TEAD-LUC reporter
# Experiment: TEAD-luciferase reporter activity (YAP activation), robust Z score vs plate; higher = stronger YAP/TEAD activation
# Settings: 24 h
Compound,TEAD-luciferase reporter activity (compound concentration: 200 nM),TEAD-luciferase reporter activity (compound concentration: 2 uM),TEAD-luciferase reporter activity (compound concentration: 10 uM)
FC(F)(F)c1cc(NC(=S)Nc2ccc(Br)cc2-c2nnn[nH]2)cc(C(F)(F)F)c1,inactive: -0.578,inactive: -1.07,inactive: -1.02
Cc1c(-c2ccc(-c3ccccc3F)cc2)nc2ccc(F)cc2c1C(=O)O [Brequinar soldium salt hydrate],inactive: 0.151,inactive: -1.08,inactive: 0.223
COc1ccc2[nH]c(C(=O)c3ccccc3)cc2c1,inactive: -0.0901,active: 10.7,active: 5.16
Cc1cc2ncc(C(=O)NC3CCCCCC3)cn2n1,inactive: -0.303,,inactive: -0.165
Cc1ccc(NS(=O)(=O)c2ccccc2)c(C(=O)O)c1,inactive: -1.3,inactive: 0.298,inactive: 0.291
CCC12CCCN3CCc4c(n(c5ccccc45)C(O)C1)C32 (configuration not stated) [Vincanol],active: 6.93,inactive: -0.575,inactive: 1.04
Cn1cncc1[C@](N)(c1ccc(C#N)cc1)c1cc2cc(C#N)cc(-c3cccc(F)c3)c2o1,inactive: -0.19,inactive: -0.983,inactive: -1.16
C[N+](C)(CCOc1ccccc1)Cc1cccs1 [Thenium Closylate],inactive: -1.37,inactive: -0.409,inactive: 0.948
C=CC(=O)Nc1ccc2ncnc(Nc3ccc(OCc4cccc(F)c4)c(Cl)c3)c2c1 [allitinib],inactive: -1.74,inactive: -1.78,inactive: 0.938
CSCC(=O)O[C@]1(C(=O)CCl)CC[C@H]2[C@H]3CCC4=CC(=O)CC[C@@]4(C)[C@@H]3[C@@H](O)C[C@@]21C,inactive: -0.279,inactive: -1.35,inactive: 1.2
Nc1nc2c(s1)CCc1nc3ccccn3c1-2,inactive: -1,inactive: 0.319,inactive: 2.14
CCn1nc(C2CCN(C(=O)CCO)CC2)nc1-c1cnc(N)c(-c2nnc(C(C)(C)C)o2)n1,inactive: -1.21,inactive: -0.674,inactive: -1.38
COc1ccc(/C(=C(\c2ccccc2)[N+](=O)[O-])c2ccc(OCCN3CCCC3)cc2)cc1,inactive: -0.415,inactive: 0.552,active: 7.87
CC(C)C[C@@H](C(=O)N[C@H](C(=O)OC1CCCC1)c1ccccc1)[C@H](O)C(=O)NO [Tosedostat (CHR2797)],inactive: -0.517,,inactive: -0.754
CC(C)C[C@@H](C(=O)N[C@H](C(=O)OC1CCCC1)c1ccccc1)[C@H](O)C(=O)NO [tosedostat],,inactive: -0.156,
COc1cc(N2CCC(N3CCN(C)CC3)CC2)ccc1Nc1ncnc(Nc2ccccc2S(=O)(=O)C(C)C)n1,inactive: -1.66,inactive: -1.35,inactive: -0.87
CN(C)CCOC(=O)C(c1ccccc1)C1(O)CCCC1 (configuration not stated),inactive: -1.08,inactive: 0.711,inactive: -0.803
O=C(O)c1cc(O)c2c(c1)C(C1c3cc(C(=O)O)cc(O)c3C(=O)c3c(OC4OC(CO)C(O)C(O)C4O)cccc31)c1cccc(OC3OC(CO)C(O)C(O)C3O)c1C2=O (configuration not stated),inactive: 3.99,inactive: -0.863,inactive: -0.194
CCCCCC(C)NCc1c(C)cc(C)cc1C (configuration not stated) [trimexiline],inactive: -0.329,inactive: 0.892,inactive: 1.82
CC(C)[C@H](NC(=O)OCc1ccc(Cl)cc1Cl)C(=O)NC(CC(=O)O)C(=O)CF (some centres not stated),inactive: -1.59,inactive: -0.6,inactive: 4.91
C[C@H]1O[C@@H](O[C@H]2[C@@H](O)C[C@H](O[C@H]3[C@@H](O)C[C@H](O[C@H]4CC[C@@]5(C)[C@H](CC[C@@H]6[C@@H]5C[C@@H](O)[C@]5(C)[C@@H](C7=CC(=O)OC7)CC[C@]65O)C4)O[C@@H]3C)O[C@@H]2C)C[C@H](O)[C@@H]1O [Digoxin],active: 9.57,inactive: -2.8,active: 17
COc1cc(NCCCCCNC(C)C)c2ncccc2c1,inactive: -0.781,inactive: 1.18,inactive: 0.689
CCCOc1cc([C@]2(C)CNC(=O)O2)ccc1OC,inactive: -1.56,inactive: 2.81,inactive: -1.44
O=C1C[O][Pt][O]1,inactive: 0.00917,,inactive: -0.354
C[n+]1cccc(C(=O)O[C@H]2CCC3C4CCc5cc(O)ccc5C4CC[C@]32C)c1 (some centres not stated),inactive: -1.22,inactive: 0.232,inactive: -0.176
CCCc1ccc(COc2ccc3c(c2)CCC(CN2CC(C(=O)O)C2)=C3C)c(OC)c1 [Ceralifimod],inactive: -1.18,inactive: 0.867,inactive: 0.806
N#C[C@@H]1C[C@H](F)CN1C(=O)C(N)C(c1ccc(F)cc1)c1ccc(F)cc1 (some centres not stated),inactive: -0.693,inactive: -0.623,inactive: 1.46

Compound,TEAD-luciferase reporter activity (compound concentration: 200 nM),TEAD-luciferase reporter activity (compound concentration: 2 uM),TEAD-luciferase reporter activity (compound concentration: 10 uM)
CC(C)(C)[C@H](c1nc(-c2cc(F)ccc2F)cn1Cc1ccccc1)N(CC[C@H](N)CF)C(=O)CO,inactive: -2.12,inactive: -0.3,inactive: 2.74
CCN1CCCCC12Cc1ccccc1CN(C(=O)CCCN(C)C)C2 (configuration not stated),inactive: -1.24,,inactive: 4.47
CCOC(=O)CN[C@@H](C(=O)N1CC[C@H]1C(=O)NCc1ccc(C(=N)NO)cc1)C1CCCCC1 [Ximelagatran],inactive: -1.66,inactive: -1.32,inactive: 0.805
Nc1ccn([C@@H]2O[C@H](CO)C(O)C2(F)F)c(=O)n1 (some centres not stated) [gemcitabine],inactive: -0.895,inactive: -1.74,inactive: -0.268
CC(=O)[C@H]1CC[C@H]2[C@@H]3C[C@H](C)C4=CC(=O)CC[C@]4(C)[C@H]3[C@@H](O)C[C@]12C,inactive: -0.214,inactive: 0.0406,inactive: -1.12
CCN(CC)CCNC(C(=O)OCCC(C)C)c1ccccc1 (configuration not stated),inactive: -1.1,inactive: 1.8,inactive: -1.83
CCCNC(C)(C)COC(=O)c1ccccc1,inactive: -1.35,inactive: 0.534,inactive: 0.611
COC[C@@]1(O)CC[C@]2(C)C3CC[C@@]4(C)C(CC[C@@H]4C(=O)COc4ccc5c(ccc[n+]5[O-])c4)C3CC[C@H]2C1 (some centres not stated),inactive: -0.199,inactive: 0.157,inactive: 1.13
C#CCC(c1nc2cc(Cl)ccc2c(=O)n1Nc1ccccc1)N(CCCN)C(=O)c1cccc(Cl)c1F (configuration not stated),inactive: -1.4,inactive: -1.61,inactive: 1.7
O=C1CCC(/C=C/c2ccncc2)=NN1,inactive: -0.0952,inactive: -0.235,inactive: -1.59
CC[C@H](O)C(C)(O)[C@@H]1OC(=O)[C@H](C)[C@H](OC2CC(C)(OC)C(O)C(C)O2)[C@@H](C)[C@H](OC2OC(C)CC(N(C)C)C2O)[C@@]2(C)CC(C)=C(O2)[C@@H]1C (some centres not stated),inactive: -0.345,inactive: -1.25,inactive: -0.931
COc1cc(Nc2ncc(F)c(Nc3ccc4c(n3)N(COP(=O)(O)O)C(=O)C(C)(C)O4)n2)cc(OC)c1OC [Fostamatinib disodium],inactive: -0.206,inactive: -1.91,inactive: -1.49
Cc1cc(/C=C/C#N)cc(C)c1Nc1ccnc(Nc2ccc(C#N)cc2)n1 [Rilpivirine],inactive: 0.137,inactive: -2,inactive: 0.617
CCCn1c(=O)[nH]c(=O)c2[nH]cnc21 [enprofylline],active: 5.18,inactive: -0.739,inactive: -1.19
C#C[C@H]1CC[C@@H](C#N)N1C(=O)CNC1(C)CCN(c2cc(C(=O)O)ccn2)CC1,inactive: -0.493,inactive: -0.427,inactive: 2.42
S=C(S)N1CCCC1,inactive: -1.98,inactive: 0.533,inactive: -3.6
Cc1c(F)cccc1NC(=O)Nc1ccc(Cl)c(S(=O)(=O)[C@H]2CCCNC2)c1O [Danirixin],inactive: -1.93,inactive: -0.632,inactive: 2.63
CNCc1ccc(C)c(NC(=O)c2ccc(Nc3nc(-c4ccccc4)c4ccccc4n3)cc2)c1,inactive: -0.422,inactive: -0.443,inactive: 0.611
COc1ccc(C(=O)/C(Br)=C/C(=O)O)cc1 [Bromebrate sodium],inactive: -0.877,inactive: -1.04,inactive: 0.671
C=C(CC)C(=O)c1ccc(OCC(=O)O)c(Cl)c1Cl,inactive: -0.635,,inactive: 1.28
C=C(CC)C(=O)c1ccc(OCC(=O)O)c(Cl)c1Cl [etacrynic acid],,inactive: -0.823,
Cc1cnc(NC(=O)c2cc(Oc3cnc(C(=O)N(C)C)nc3)c3cc(C)oc3c2)cn1,inactive: 0.638,inactive: -0.54,inactive: -1.71
C=C1c2cccc(O)c2C(=O)C2C(=O)[C@]3(O)C(=O)C(C(N)=O)C(=O)[C@@H](N(C)C)[C@@H]3[C@@H](O)[C@H]12 (some centres not stated) [Methacycline HCl],inactive: -1.75,,inactive: 1.02
C=C1c2cccc(O)c2C(=O)C2C(=O)[C@]3(O)C(=O)C(C(N)=O)C(=O)[C@@H](N(C)C)[C@@H]3[C@@H](O)[C@H]12 (some centres not stated),,inactive: 0.351,
COc1ccccc1OC(=O)CNC(=O)Cc1ccc(C(=O)c2ccc(C)cc2)n1C [amtolmetin guacil],inactive: -0.834,inactive: 3.98,inactive: 2.25
CC(C)(C)NCC(O)COc1ccc(NC(=O)NC2CCCCC2)cc1 (configuration not stated) [Talinolol],active: 5.02,inactive: -1.67,inactive: 0.557

# Exported tab-delimited: entries from further up
Compound	TEAD-luciferase reporter activity (compound concentration: 200 nM)	TEAD-luciferase reporter activity (compound concentration: 2 uM)	TEAD-luciferase reporter activity (compound concentration: 10 uM)
CC(C)(C)[C@H](c1nc(-c2cc(F)ccc2F)cn1Cc1ccccc1)N(CC[C@H](N)CF)C(=O)CO	inactive: -2.12	inactive: -0.3	inactive: 2.74
CCN(CC)CCNC(C(=O)OCCC(C)C)c1ccccc1 (configuration not stated)	inactive: -1.1	inactive: 1.8	inactive: -1.83
COC[C@@]1(O)CC[C@]2(C)C3CC[C@@]4(C)C(CC[C@@H]4C(=O)COc4ccc5c(ccc[n+]5[O-])c4)C3CC[C@H]2C1 (some centres not stated)	inactive: -0.199	inactive: 0.157	inactive: 1.13
C#CCC(c1nc2cc(Cl)ccc2c(=O)n1Nc1ccccc1)N(CCCN)C(=O)c1cccc(Cl)c1F (configuration not stated)	inactive: -1.4	inactive: -1.61	inactive: 1.7
CC[C@H](O)C(C)(O)[C@@H]1OC(=O)[C@H](C)[C@H](OC2CC(C)(OC)C(O)C(C)O2)[C@@H](C)[C@H](OC2OC(C)CC(N(C)C)C2O)[C@@]2(C)CC(C)=C(O2)[C@@H]1C (some centres not stated)	inactive: -0.345	inactive: -1.25	inactive: -0.931
Cc1cc(/C=C/C#N)cc(C)c1Nc1ccnc(Nc2ccc(C#N)cc2)n1 [Rilpivirine]	inactive: 0.137	inactive: -2	inactive: 0.617
CNCc1ccc(C)c(NC(=O)c2ccc(Nc3nc(-c4ccccc4)c4ccccc4n3)cc2)c1	inactive: -0.422	inactive: -0.443	inactive: 0.611
C=C(CC)C(=O)c1ccc(OCC(=O)O)c(Cl)c1Cl	inactive: -0.635		inactive: 1.28
Cc1cnc(NC(=O)c2cc(Oc3cnc(C(=O)N(C)C)nc3)c3cc(C)oc3c2)cn1	inactive: 0.638	inactive: -0.54	inactive: -1.71
C=C1c2cccc(O)c2C(=O)C2C(=O)[C@]3(O)C(=O)C(C(N)=O)C(=O)[C@@H](N(C)C)[C@@H]3[C@@H](O)[C@H]12 (some centres not stated) [Methacycline HCl]	inactive: -1.75		inactive: 1.02
CC(C)(C)NCC(O)COc1ccc(NC(=O)NC2CCCCC2)cc1 (configuration not stated) [Talinolol]	active: 5.02	inactive: -1.67	inactive: 0.557
